Data on one molecule can be found in patent US7452523B2 (priority 2004, dated 2008).

The test system of data set [1] is patients suffering from cough. The following applies: 16 mg lung dose delivered as 40 mg/1 ml saline.
The subject of data set [2] is guinea pigs exposed to citric acid or capsaicin. As to conditions: cited from earlier work.

Where two headings read alike, the source gives them in different places.

As to `CCN(CC)CC(=O)Nc1c(C)cccc1C` [lidocaine, acetamide 2-(diethylamino)-N-(2,6-dimethylphenyl)], the “severe undesirable effects (oropharyngeal numbing, loss of gag reflex, increased plasma levels)” value in data set [1] was “void of any severe undesirable effects”. In addition, the first cough result is given as “not” in data set [2] (aerosol 1 mg/ml); “postpone a first cough” in data set [2] (aerosol 0.1 and 10 mg/ml). Also, in data set [2] (aerosol 10 mg/ml), the number of coughs result was “significantly decrease a number of coughs”.
